Assay results taken from US20160368868A1, “N-(1-CYANO-2-HYDROXY-1-METHYL-ETHYL)-4-(TRIFLUOROMETHYLSULFANYL)BENZAMIDE DERIVATIVES FOR USE AS NEMATOCIDAL DRUGS” (UNIVERSITÄT ZÜRICH Prorektorat MNW, priority 2013, published 2016).
Some of these results come from one statement about several compounds together.

Tested on: H. contortus
Assay: Larval development assay (LDA)
Details: concentrations tested largely in the micromolar range; normalized to DMSO control

Compound	mean larval development [%]
CC(=O)OCC(C)(C#N)NC(=O)c1ccc(SC(F)(F)F)cc1 (centres unmarked) [ahpOH1, 2-Cyano-2-(4-((trifluoromethyl)thio)benzamido)propyl acetate]	< 50
CC(C#N)(CO)NC(=O)c1ccc(SC(F)(F)F)cc1 (centres unmarked) [ahpOH, N-(2-cyano-1-hydroxypropan-2-yl)-4-((trifluoromethyl)thio)benzamide]	< 50
